Data published in article PMC10163288.
The list shows a part of the results.

B1: il10ra_site1_normal_mot_8756ee2cf497b5429c717dfc0c0bcfd6_0001_000000186_0001_1_13_H_._HHH_b1_02785_0001_0000100007_0000001_0 (protein)
chain: SSSSDNEELYRLLREAAEVHHEENDPEEAKEILEEAIELAEELNNDVFLAQAEYMLRLLRSSSSS
B2: il10ra_site1_sap_19_mot_HHH_b1_02616_af2_000000157_0001_1_18_H_._HHH_b1_06733_af2_0001_0000700019_0000001_0_0001 (protein)
chain: SSSSSEELQEEVEELLEEAKHIEDPRERAEVLLRATHLAMQLGDPELVRLVWRVVKELFKSSSSS
B3: il10ra_site1_normal_mot_HHH_b1_06837_000000150_0001_20_37_H_._HHH_b1_00034_0001_0000200019_0000001_0 (protein)
chain: SSSSDERREIYELLREASELDQEGNPEEARKVLEEAEELAEEAGNRLLLFVVEYLLRILNSSSSS
B4: il10ra_site1_normal_mot_HHH_b2_00475_000000107_0001_44_57_H_._HHH_b1_01897_0001_0000100002_0000001_0_af2pred_0001 (protein)
chain: SSSSSEEVAELLLKALEALANGNPEEARELAEEAERVAEELGDPELEEKVEIVKHFIEAVSSSSS
B5: il10ra_site1_sap_13_mot_HHH_b1_00814_af2_000000078_0001_43_57_H_._HHH_b1_01095_af2_0001_0000100003_0000001_0_0001 (protein)
chain: SSSSYEEVKELIEQIVELARNGNPEEAEKVLEELRELAEELNNPAVRFDVELLERDIKATSSSSS
B6: il10ra_site1_sap_23_mot_HHH_b1_02809_af2_000000277_0001_40_57_H_._HHH_b1_02459_0001_0000100004_0000001_0_0001_af2pred_0001 (protein)
chain: SSSSSSSERREVRELIREALHIDDEEERRQVLEEALRLAEELGNLLLEIAARFALKRSSSSSSSS
B7: il10ra_site1_normal_mot_HHH_b1_05860_000000142_0001_1_19_H_._HHH_b2_06708_af2_0001_0000300028_0000001_0 (protein)
chain: SSSSDEAAEEVYRLLRELAELHDEGDEEEFERLAERIEELIRELGNRLLEFNLRHLQRQLSSSSS
B8: il10ra_site1_sap_8_mot_HHH_b2_00277_af2_000000172_0001_1_17_H_._HHH_b2_05601_0001_0000200007_0000001_0_0001 (protein)
chain: SSSSSSAHELYELSRRVAELRARGNPEEARELVREAIELAEELNNRVMLHNLRMLLEQLESSSSS
B9: il10ra_site1_normal_mot_HHH_b2_07440_af2_000000021_0001_1_18_H_._HHH_b1_03012_af2_0001_0000500014_0000002_0 (protein)
chain: SSSSDEEKQEALELSLEAFRLALRGNEEEAKKVLEEAERLLEELGDPRALRIVRSLLQALSSSSS
B10: il10ra_site1_normal_mot_HHH_b2_04680_000000215_0001_1_16_H_._HHH_b2_02011_af2_0001_0000300016_0000001_0 (protein)
chain: SSSSSSSEENREAYELLREAFHIEDPEEVRELLEEALELAREIGNFALVFAIELALKQLSSSSSS
B11: il10ra_site1_sap_18_mot_HHH_b2_00277_af2_000000172_0001_1_17_H_._HHH_b2_02521_0001_0000400007_0000002_0_0001 (protein)
chain: SSSSDEEERLEELLEEAEELLEKGDKERLLRVLLEALQLAYQLGDEEVLQRLWELLERARSSSSS
B12: il10ra_site1_normal_mot_HHH_b2_02337_000000026_0001_38_52_H_._HHH_b1_02776_0001_0000300029_0000001_1 (protein)
chain: SSSSDLEEEIEELLKELEELIKEGDQERISELAQRILRLIAEAQNAELLRELWRLVQEFYSSSSS
B13: il10ra_site1_sap_27_mot_HHH_b1_02665_000000293_0001_1_18_H_._HHH_b2_00293_0001_0000200009_0000001_0_0001 (protein)
chain: SSSSDEEELRRQAEELLEEAEELSKRDPEKASRVAAKAVRIALRANDEELLQEIWEFVKRLSSSS
B14: il10ra_site1_sap_24_mot_39ab2cb694c8b9c1dc7e65c0d672c93e_0001_000000036_0001_53_65_H_._HHH_b2_00700_af2_0001_0000200009_0000001_0_0001 (protein)
chain: SSSSDKELRRRAYELSREIVELASEGDEERAEELLREVEEIAEEANSKLMEFIVEILKRDLSSSS
B15: il10ra_site1_sap_27_mot_HHH_b2_08186_000000021_0001_43_56_H_._HHH_b1_07279_0001_0000600053_0000001_0_0001 (protein)
chain: SSSSSDYEERVRELLEEAEELAEEGDPEKAVKLAQEAVRAAFQAKDPELLRLVFRVARKLSSSSS
B16: il10ra_site1_sap_15_mot_65b8060e20531850bca9f2e11f97d954_0001_af2_000000137_0001_17_31_H_._HHH_b1_04696_0001_0000500012_0000001_0_0001 (protein)
chain: SSSSSTEEVMKLIREAAELIQQGNEEEAREVLEEARELAEEENNWALRWAIRHLERDLNSSSSSS
B17: il10ra_site1_sap_19_mot_HHH_b2_01705_af2_000000069_0001_44_57_H_._HHH_b1_08772_af2_0001_0000100001_0000001_0_0001 (protein)
chain: SSSSDEEELERLLEELKELIEEGDREEALRLMKEILHLAFRLSDPEAFHILMRLAEELKNSSSSS
B18: il10ra_site1_sap_25_mot_HHH_b1_06256_000000091_0001_42_58_H_._HHH_b1_02304_0001_0000400033_0000001_0_0001 (protein)
chain: SSSSDEVAHELYELLREIAELMAEGDRERAEELLEEAKELAEEHNSPLLFNIRYLEEQVNSSSSS
B19: il10ra_site1_sap_11_mot_HHH_b2_00943_af2_000000149_0001_1_17_H_._HHH_b2_04042_0001_0000500018_0000001_0_0001 (protein)
chain: SSSSDKYEEIKKAIERIIKLLEEGDRERAEEVLEELEEIVEESGDWAQRFVVELLERDIKASSSS
B20: il10ra_site1_normal_mot_HHH_b1_04514_000000156_0001_1_18_H_._2051c93d6f136ab5bac26191f104723f_0001_1_0001_0000400018_0000002_0_af2pred_0001 (protein)
chain: DELEEKIREAIEKNDFELLREIIEIIAELRERDPEEAEELVELLLKLARELNDPYVAHSAEALKR
B21: il10ra_site1_normal_mot_HHH_b1_01879_000000050_0001_1_18_H_._HHH_b2_02257_0001_0000500017_0000002_0_af2pred_dldesign_0_af2pred (protein)
chain: SSSSKKEIEKTVFDALVKAAKEGDWDTVRELATLSRQVKLTKDPELEKKLYELAKSYLEKISSSS
B22: il10ra_site1_sap_19_mot_HHH_b1_00666_000000226_0001_43_56_H_._HHH_b1_02217_af2_0001_0000200007_0000002_0_0001 (protein)
chain: SSSSSDEEVEELIEQVEELLRQGDPERALQVVYEAVRIAAELGDEELLRRLQELIQEIFGSSSSS
B23: il10ra_site1_normal_mot_HHH_b1_03333_000000091_0001_1_17_H_._HHH_b1_05408_0001_0000200031_0000001_0 (protein)
chain: SSSSTEEYEEVKEAIEKAVELFRNGDPEEARELLEELLEKLEELGNVAAVFSVEHLARLLSSSSS
B24: il10ra_site1_sap_20_mot_HHH_b2_01205_000000166_0001_1_19_H_._HHH_b1_02466_0001_0000300019_0000002_0_0001 (protein)
chain: SSSSSEFVEMTFRFAEWLAREGDDRAARRFLQAAEDIARRDNDPELEELVEELEKLLRELLSSSS

Target: il10ra, Q13651
Assay: yeast display titration

Apparent Kd, inactive:
B1 no binding seen
B2 no binding seen
B3 no binding seen
B4 no binding seen
B5 no binding seen
B6 no binding seen
B7 no binding seen
B8 no binding seen
B9 no binding seen
B10 no binding seen
B11 no binding seen
B12 no binding seen
B13 no binding seen
B14 no binding seen
B15 no binding seen
B16 no binding seen
B17 no binding seen
B18 no binding seen
B19 no binding seen
B20 no binding seen
B21 > 859 nM
B22 no binding seen
B23 no binding seen
B24 no binding seen

Quoted at random: two records from the list, in no set order.
Apparent Kd, inactive:
B11 no binding seen
B14 no binding seen
